No constants are given. Whether binding was seen depends on the method and setting. Binding seen in cells or lysates may run through a third protein. Some results given as binding are weak or reduced against the parent protein; the word gives no strength.
What was measured:
[1] = target: interleukin enhancer-binding factor 2 (ILF2) (human (endogenous in DLD1)) (UniProt Q12905); assay: pull-down
[2] = target: DExH-box helicase 9 (DHX9) (human (endogenous in DLD1)) (UniProt Q08211); assay: co-IP + proximity ligation

By UniProt entry, the sequences of proteins in these tests, tags left out.
UniProt Q12905: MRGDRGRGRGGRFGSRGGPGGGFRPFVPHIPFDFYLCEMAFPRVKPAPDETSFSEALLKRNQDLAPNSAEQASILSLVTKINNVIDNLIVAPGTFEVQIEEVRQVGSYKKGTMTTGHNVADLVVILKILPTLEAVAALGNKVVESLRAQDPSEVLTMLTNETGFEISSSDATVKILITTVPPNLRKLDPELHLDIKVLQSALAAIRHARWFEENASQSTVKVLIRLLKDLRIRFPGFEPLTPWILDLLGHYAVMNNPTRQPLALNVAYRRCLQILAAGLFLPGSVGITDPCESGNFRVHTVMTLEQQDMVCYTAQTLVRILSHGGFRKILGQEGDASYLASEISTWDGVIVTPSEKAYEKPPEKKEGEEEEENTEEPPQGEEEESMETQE
UniProt Q08211: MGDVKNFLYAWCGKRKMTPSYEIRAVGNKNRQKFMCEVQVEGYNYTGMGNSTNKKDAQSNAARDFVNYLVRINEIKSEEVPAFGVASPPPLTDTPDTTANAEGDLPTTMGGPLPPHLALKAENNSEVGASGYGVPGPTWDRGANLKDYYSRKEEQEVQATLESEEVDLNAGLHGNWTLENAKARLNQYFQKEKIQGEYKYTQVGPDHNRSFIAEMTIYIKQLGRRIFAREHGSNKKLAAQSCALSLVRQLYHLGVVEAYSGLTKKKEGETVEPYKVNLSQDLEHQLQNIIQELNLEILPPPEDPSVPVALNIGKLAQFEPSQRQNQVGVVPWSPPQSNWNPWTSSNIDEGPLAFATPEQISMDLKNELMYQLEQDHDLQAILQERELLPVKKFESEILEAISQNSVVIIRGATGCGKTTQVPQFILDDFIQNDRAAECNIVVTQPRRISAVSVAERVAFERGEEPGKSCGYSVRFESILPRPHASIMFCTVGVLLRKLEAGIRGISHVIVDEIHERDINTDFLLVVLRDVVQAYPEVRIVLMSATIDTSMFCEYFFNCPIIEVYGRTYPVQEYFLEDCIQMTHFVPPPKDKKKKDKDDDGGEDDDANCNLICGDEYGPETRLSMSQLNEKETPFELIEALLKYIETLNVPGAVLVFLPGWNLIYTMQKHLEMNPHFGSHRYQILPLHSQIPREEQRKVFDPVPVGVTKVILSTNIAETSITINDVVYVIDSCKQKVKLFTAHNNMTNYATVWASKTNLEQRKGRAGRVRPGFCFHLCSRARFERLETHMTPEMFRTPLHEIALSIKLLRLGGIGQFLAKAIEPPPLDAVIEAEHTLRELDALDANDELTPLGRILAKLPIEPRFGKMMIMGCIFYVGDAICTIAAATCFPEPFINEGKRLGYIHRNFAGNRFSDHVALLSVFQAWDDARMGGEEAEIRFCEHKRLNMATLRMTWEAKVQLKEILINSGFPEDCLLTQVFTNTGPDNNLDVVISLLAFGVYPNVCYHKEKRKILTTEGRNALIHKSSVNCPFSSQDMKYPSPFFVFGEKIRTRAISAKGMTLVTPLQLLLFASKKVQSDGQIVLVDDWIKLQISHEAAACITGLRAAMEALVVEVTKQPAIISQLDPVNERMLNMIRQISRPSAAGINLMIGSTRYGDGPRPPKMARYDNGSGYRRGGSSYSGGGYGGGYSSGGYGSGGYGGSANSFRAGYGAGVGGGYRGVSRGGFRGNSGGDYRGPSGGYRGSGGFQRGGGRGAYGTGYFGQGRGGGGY
UniProt Q15717: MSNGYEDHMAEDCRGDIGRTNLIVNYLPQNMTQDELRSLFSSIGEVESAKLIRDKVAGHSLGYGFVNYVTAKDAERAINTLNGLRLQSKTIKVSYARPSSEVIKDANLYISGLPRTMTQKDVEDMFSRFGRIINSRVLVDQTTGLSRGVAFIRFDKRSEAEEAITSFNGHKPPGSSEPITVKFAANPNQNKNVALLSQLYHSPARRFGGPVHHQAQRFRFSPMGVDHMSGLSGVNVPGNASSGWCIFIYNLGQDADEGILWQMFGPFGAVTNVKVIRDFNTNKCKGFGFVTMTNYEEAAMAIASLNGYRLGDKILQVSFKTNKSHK
UniProt Q7Z333: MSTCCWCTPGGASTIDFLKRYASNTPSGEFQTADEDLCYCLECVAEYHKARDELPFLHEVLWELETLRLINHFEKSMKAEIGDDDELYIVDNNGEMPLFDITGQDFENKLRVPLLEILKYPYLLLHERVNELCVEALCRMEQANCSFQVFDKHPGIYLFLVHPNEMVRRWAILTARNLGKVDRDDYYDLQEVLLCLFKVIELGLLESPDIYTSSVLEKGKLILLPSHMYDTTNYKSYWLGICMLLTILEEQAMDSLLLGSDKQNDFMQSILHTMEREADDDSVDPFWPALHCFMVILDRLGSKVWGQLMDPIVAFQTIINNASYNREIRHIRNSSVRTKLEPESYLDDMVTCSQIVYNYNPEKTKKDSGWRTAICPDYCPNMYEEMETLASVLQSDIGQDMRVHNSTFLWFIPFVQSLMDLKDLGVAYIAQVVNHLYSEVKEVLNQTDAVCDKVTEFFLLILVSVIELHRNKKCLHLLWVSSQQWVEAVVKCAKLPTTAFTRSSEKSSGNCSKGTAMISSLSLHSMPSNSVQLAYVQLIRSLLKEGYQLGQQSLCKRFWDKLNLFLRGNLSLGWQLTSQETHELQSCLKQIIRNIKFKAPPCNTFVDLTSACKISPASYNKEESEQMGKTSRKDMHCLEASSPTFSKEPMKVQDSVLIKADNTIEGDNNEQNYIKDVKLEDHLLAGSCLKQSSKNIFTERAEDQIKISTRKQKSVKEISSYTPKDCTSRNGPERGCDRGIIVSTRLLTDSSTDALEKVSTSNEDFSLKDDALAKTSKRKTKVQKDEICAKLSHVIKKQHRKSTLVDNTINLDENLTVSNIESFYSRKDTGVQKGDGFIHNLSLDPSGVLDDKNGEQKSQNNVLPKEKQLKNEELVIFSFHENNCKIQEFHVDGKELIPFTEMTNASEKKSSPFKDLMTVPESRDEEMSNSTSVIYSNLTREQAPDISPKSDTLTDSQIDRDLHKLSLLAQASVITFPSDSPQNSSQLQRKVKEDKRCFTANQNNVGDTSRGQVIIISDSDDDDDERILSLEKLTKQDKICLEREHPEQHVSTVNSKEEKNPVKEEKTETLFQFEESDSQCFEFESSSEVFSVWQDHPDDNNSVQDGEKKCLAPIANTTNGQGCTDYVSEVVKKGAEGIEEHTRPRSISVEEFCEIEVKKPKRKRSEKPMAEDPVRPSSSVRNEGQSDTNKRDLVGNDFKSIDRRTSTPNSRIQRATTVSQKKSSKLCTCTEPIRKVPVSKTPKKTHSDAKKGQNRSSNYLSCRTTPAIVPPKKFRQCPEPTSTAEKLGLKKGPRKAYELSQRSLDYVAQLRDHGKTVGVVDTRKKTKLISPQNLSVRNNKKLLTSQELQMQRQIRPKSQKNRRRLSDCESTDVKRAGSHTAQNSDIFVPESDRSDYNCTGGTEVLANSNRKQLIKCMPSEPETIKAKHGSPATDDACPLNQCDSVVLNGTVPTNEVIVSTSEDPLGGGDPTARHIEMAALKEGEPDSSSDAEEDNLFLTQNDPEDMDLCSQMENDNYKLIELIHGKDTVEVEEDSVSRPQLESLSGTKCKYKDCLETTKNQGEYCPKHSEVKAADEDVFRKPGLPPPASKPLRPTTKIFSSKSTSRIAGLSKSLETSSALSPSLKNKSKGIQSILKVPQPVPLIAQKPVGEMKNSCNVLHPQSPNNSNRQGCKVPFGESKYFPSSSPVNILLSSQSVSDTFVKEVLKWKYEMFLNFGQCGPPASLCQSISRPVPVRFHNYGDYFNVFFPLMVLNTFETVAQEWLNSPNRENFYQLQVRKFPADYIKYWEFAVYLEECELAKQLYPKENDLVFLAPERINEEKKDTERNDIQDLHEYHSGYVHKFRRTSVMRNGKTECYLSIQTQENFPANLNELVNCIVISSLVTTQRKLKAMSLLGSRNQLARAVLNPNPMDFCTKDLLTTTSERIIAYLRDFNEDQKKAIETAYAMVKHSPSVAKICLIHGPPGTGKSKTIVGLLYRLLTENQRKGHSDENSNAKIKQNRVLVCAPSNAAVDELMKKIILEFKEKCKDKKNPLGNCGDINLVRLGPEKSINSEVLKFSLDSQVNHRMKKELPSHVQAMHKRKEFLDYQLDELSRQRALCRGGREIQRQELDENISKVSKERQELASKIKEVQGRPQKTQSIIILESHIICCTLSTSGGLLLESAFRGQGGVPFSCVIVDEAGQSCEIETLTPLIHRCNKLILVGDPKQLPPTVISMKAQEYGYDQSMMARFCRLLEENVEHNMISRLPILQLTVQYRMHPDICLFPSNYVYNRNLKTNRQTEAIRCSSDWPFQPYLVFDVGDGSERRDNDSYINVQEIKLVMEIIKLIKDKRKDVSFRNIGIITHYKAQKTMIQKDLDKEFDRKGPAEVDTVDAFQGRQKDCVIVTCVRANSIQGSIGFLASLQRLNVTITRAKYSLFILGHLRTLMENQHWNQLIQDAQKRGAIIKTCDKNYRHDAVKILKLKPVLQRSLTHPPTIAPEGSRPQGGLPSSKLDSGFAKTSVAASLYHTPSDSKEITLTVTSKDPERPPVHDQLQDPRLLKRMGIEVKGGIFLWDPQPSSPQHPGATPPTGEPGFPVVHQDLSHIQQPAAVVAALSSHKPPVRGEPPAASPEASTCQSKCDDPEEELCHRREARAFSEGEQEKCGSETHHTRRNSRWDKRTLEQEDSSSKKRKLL
UniProt P67809: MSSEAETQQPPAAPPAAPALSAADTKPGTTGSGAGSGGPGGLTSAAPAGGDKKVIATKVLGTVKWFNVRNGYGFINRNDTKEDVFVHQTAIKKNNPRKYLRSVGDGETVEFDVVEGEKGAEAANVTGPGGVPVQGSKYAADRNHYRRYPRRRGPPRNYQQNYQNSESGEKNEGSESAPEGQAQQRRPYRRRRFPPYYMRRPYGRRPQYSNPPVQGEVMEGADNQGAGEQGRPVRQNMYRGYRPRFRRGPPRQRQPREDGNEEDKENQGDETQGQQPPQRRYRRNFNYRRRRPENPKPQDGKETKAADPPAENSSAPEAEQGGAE

Row | binding [1] | binding [2] | Substance
1 | binds | – | HuR (from UniProt Q15717 1-326)
2 | no binding | binds | Senataxin (SETX) (from UniProt Q7Z333 1-2677) (enzyme)
3 | binds | – | YB1 (from UniProt P67809 1-324)

Source: doi:10.1101/2025.05.21.655390
